Measured values published in PubChem BioAssay AID1347423 (Functional Genomics Laboratory (NCATS/FGL), 2020).
In all, about 52,000 sequences went through this assay and about 210 (0.4%) were called active.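 The calls were made as follows: active = gene whose silencing raises cell survival under the drug, median off-target-corrected z-score across its silencing RNAs 2 or more; inactive = the rest.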 The list shows a part of the results.

Assay: Resistance to Poly (ADP-Ribose) Polymerase inhibitor: Gene Identification via Genome-wide siRNA Screen
Conditions: mouse BRCA2 R2336H ES cells, olaparib, CellTiter-Glo viability; active compounds read high
Method in brief: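 Mouse BRCA2 R2336H ES cells were reverse-transfected with siRNA (20 nM final), treated at 48 h with 500 nM olaparib, and read by CellTiter-Glo after 72 h. Scores: MAD-based z per siRNA, median per gene, seed off-target correction.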

| Sequence | z-score |
| --- | --- |
| GGUAGAAUACGUGUUCCUGTT against Cacna1f | inactive: -1.08 |
| GGGAAUUGAUGAAAGCUCUTT against Tnrc15 | inactive: 0.888 |
| GGAUAACGAUCCUUUUGACTT against Prss21 | inactive: -0.177 |
| GGUGCUGCUAUUCCUGCACTT against Gpam | inactive: 0.317 |
| GGCUGUACCCAGCAAAAAGTT against 4930431B11Rik | inactive: 1.2 |
| GGCCUAUUUUUUCAUAGUUTT against Ptprs | inactive: -0.92 |
| GGCAGUCACACAGUUUGAATT against B230209C24Rik | inactive: -0.416 |
| GGAGAAGAAAAAGCGGUACTT against Plxnb2 | inactive: -1.27 |
| GGAAAAUCUACAUUCCCUUTT against Ncstn | inactive: 0.123 |
| CCUGUCCUCAUGACAUGAUTT against Mg29 | inactive: 0.595 |
| GGGAUAAUGAUGCAACUAATT against T2R37 | inactive: -0.663 |
| GGAGCACAAUAGUAAACUATT against Rpo1-4 | inactive: -2.5 |
| GGCACCAUACUGGACAUACTT against Chpt1 | inactive: -0.354 |
| CCAUAGACUAUUAUCCUUATT against E030041M21Rik | inactive: 0.663 |
| GGUGGUUGGUACCUACAAUTT against D11Lgp1e | inactive: -2.1 |
| GGAACAAGAACAAAAAGCATT against 0610040D20Rik | inactive: -0.89 |
| GCAAGAACUCGCUGAUCCATT against Frap1 | inactive: -3.06 |
| GGAGGCAUGCCCUAUGAAUTT against Zfp11 | inactive: -0.395 |
| GCCAACUCGAACAUUUUGATT against Suhw2 | inactive: 1.83 |
| GGAAGAUGAGGAGAAAGACTT against Rin3 | inactive: -0.678 |
| GGACGCAGACAGGACAAAATT against Adprtl2 | inactive: -0.31 |
| GGAUGAAAAAUACUGGUGUTT against Ugt8 | inactive: 3.17 |
| CCCGUCUCUUAAUCUGUUGTT against Ptprr | inactive: -0.801 |
| GGAAAACCACAAAACAUGATT against Muc20 | inactive: 1.43 |
| CCCUUAAUGAGACAAGGCATT against A630023P12Rik | inactive: -0.184 |
| GGCACAAUUGAUCCUUUUUTT against Bk | inactive: 0.0195 |

| Sequence | z-score |
| --- | --- |
| CCCAACAUAUUUUUUAGCATT against Hmgcll1 | inactive: 0.175 |
| GGCUUUUUCCUAAACUUGGTT against Nt5c | inactive: 0.935 |
| GCCUGUGAUCUUUUGUAUCTT against Olfr835 | inactive: -0.000737 |
| GCUCGAGUGUAAGAUCUGUTT against C630023L15Rik | inactive: 0.244 |
| GUUAUCUGGAUAUCCUAUATT against Olfr1469 | inactive: 0.34 |
| GGCAGAUGAUGGUCCAUGCTT against Tfpi | inactive: -0.948 |
| GGCAAAAAGGACGUGAACCTT against Cblc | inactive: 1.37 |
| CCUGAUUAGCAGAGACUUGTT against Col23a1 | inactive: -3.15 |
| GCAGAACCAACAUGGCCGUTT against Polr3b | inactive: -0.847 |
| CCUCUCUACAUAAAGUGCATT against 0610009B10Rik | inactive: 0.0965 |
| GGCUCUCAAUGAUCAUCAUTT against Aldob | inactive: -0.791 |
| GGUAGCGAUGUUUUCUUAUTT against C630002B14Rik | inactive: 0.0373 |
| GGAGCUGCUCAUGUAUUCCTT against Gnb2 | inactive: 0.0561 |
| GCAUUAGUGGACAUGUAUCTT against Slc6a13 | inactive: 1.05 |
| GGAAGUGCUGCACAUACUATT against Bnc2 | inactive: -0.913 |
| CGGUUGUGUGAGUAAAAUUTT against Pax6 | inactive: -1.17 |
| GCUCAUAGAGACAAUUGCATT against Olfr822 | inactive: -1.18 |
| GCAAUGUGUAUGGUAUCUUTT against Tas2r121 | inactive: -0.177 |
| CCUAAAGGAAGGUUUCCAUTT against Cacng4 | inactive: 0.151 |
| GGUUUCGAGAAAACAACAATT against D4Wsu114e | inactive: 0.206 |
| GGAUUUGCUCACGGAACCATT against Olfr1230 | inactive: -1.49 |
| GGUAAAACCGUUUUUGACATT against 2410003C20Rik | inactive: -0.268 |
| GGCGCAUAGCAUUUGACAUTT against Fbxl13 | inactive: 1.2 |
| GGAGAUCCUGGGUACUGCATT against Rpl12 | inactive: -3.08 |
| GCCCUUUGGAAGAAUACUCTT against 2310061A22Rik | inactive: 1.99 |
| GGCUAUGAACUCUUAUUUCTT against Catns | inactive: 2.05 |

| Sequence | z-score |
| --- | --- |
| GGCUCUUACAUGAAAUGAUTT against Copb1 | inactive: -1.88 |
| CCAUCUUGGAGAUCCUGAUTT against Htatip | inactive: -2.23 |
| GCCUGUGCAAAAGAGAUUUTT against Gata3 | inactive: 1.17 |
| GGAAAGUUGCACUAUUAUCTT against Ide | inactive: 2.8 |
| GGAACAAUGGGUUCAUUUUTT against Ifi203 | inactive: -0.261 |
| GUGGUAAACAGAAUGGUGATT against LOC432582 | inactive: 1.81 |
| CGACAACAAUCUGGCCUAUTT against Ap2s1 | inactive: 1.63 |
| GGCAGCAGCACUGAUUACUTT against Gja12 | inactive: -0.551 |
| GGGAGAUGGGUUUGUGUAATT against 9030607L17Rik | inactive: -1.16 |
| GGAGCUGAUGACUUCAGGCTT against Mmp19 | inactive: 1.18 |
| GGAUCUGGUGACAAACGUATT against Cabyr | inactive: 1.08 |
| GGAUCGGUGAGAUUGUAGCTT against MGC49146 | inactive: -1.4 |
| GGAGAAAUGAAAAAACAGUTT against 1110014L17Rik | inactive: 0.441 |
| GGCACACUUAAGUAAAAGUTT against Kras2 | inactive: 0.429 |
| GGUCGUGAGCUUUAUGAGATT against Myo1d | inactive: 0.628 |
| GCAUCAUCGUUUUUGGAAATT against A530082C11Rik | inactive: -0.043 |
| GCAUUAGGAAAGUAAUAAGTT against Olfr11 | inactive: 0.00932 |
| GAUGCUGGUUGACCUCCUATT against Olfr368 | inactive: -1.57 |
| GCUGAUUGUCAAGGAAUAUTT against Tspyl1 | inactive: -1.76 |
| GGCGGACGUGAAGAACUUGTT against 1110019O13Rik | inactive: 1.13 |
| GCCCUGAAAUAGAAGUUGGTT against A930024E05Rik | inactive: 1.48 |
| UGCCUCAAUCAUAAGUCCCTT against Olfr730 | inactive: -2.07 |
| GGACUUCACAAUUUAAGUUTT against Il5 | inactive: -0.628 |
| GGUUGUAAUAGCCUUAGCCTT against 5133400D11Rik | inactive: 0.845 |
| GGAGAGAUGGAUACAUUUCTT against Atp5j | inactive: -0.208 |
| GGCUUUAAGGUGUUUUUCATT against E230025K15 | inactive: -0.18 |

6 entries from above, set out differently:
Sequence,z-score
GGCGGACGUGAAGAACUUGTT against 1110019O13Rik,inactive: 1.13
GCCCUGAAAUAGAAGUUGGTT against A930024E05Rik,inactive: 1.48
UGCCUCAAUCAUAAGUCCCTT against Olfr730,inactive: -2.07
GGACUUCACAAUUUAAGUUTT against Il5,inactive: -0.628
GGUUGUAAUAGCCUUAGCCTT against 5133400D11Rik,inactive: 0.845
GGAGAGAUGGAUACAUUUCTT against Atp5j,inactive: -0.208

Further results:

| Sequence | z-score |
| --- | --- |
| GGUGCUGGAUGAAUUUGGGTT against Zp1 | inactive: 0.0965 |
| GAGUGAUCUUCCACUUACGTT against BC026645 | inactive: 0.0486 |
| GGAUGCUUGGCUGAAGAACTT against Ptprs | inactive: 0.583 |
| GGAAGAUGAUGCUUUCAAATT against Il18 | inactive: 0.178 |
| GGCAAACCUGCUUUCAUGGTT against Smc5l1 | inactive: -1.09 |
| GCCAUUCGUUCUACGAAACTT against D6Wsu176e | inactive: -0.135 |
| GGAAAGAAACUUAAAGUGGTT against Tfdp1 | inactive: -0.184 |
| GCACUUGCUUCAAGUAAUATT against G431002C21Rik | inactive: 0.202 |
| GGAAUUUUCUACAUGUGUGTT against Lim2 | inactive: 1.12 |
| GGGAUUUUGUGAUGUCCGCTT against Mmp23 | inactive: 0.242 |
| GCUAAGACAGAACUCUUCUTT against Nap1l5 | inactive: 0.334 |
| GGAGAGAGAAUGAAAGUCATT against Gm608 | inactive: -1.16 |
| GGGUCUGUCAAGAUUGACATT against Fsip1 | inactive: 3.38 |
| GAAACUCUGUGAAUAUAACTT against Zfp97 | inactive: 1.27 |
| GGACAUCCAUCAUUACUUUTT against Slc26a2 | inactive: 0.51 |
| CGGGAUUCUAAAAAAAGUGTT against Hibadh | inactive: 0.699 |
| GGGAACCCUAACAACUUCGTT against Wfdc6 | inactive: -0.785 |
| GCCAACAAAGUGAUCGAAGTT against Fkbp10 | inactive: -0.197 |
| GGUGUGGAUCUUUCGUAAUTT against Il1f9 | inactive: -0.166 |
| GCCUCGAUUCACCAAGUGUTT against Ghr | inactive: 2.31 |
| GGGCAGCAUUUUUCUGAUATT against Mfap3 | inactive: 0.0408 |
| GCACAUGGUUAUGGUGAAATT against Cd200r1 | inactive: -0.756 |
| GGAGUUCUUUCAGACCUUATT against Cidea | inactive: 0.441 |
| GCCUCUUAUUUGGUUACGATT against Vmd2l3 | inactive: -1.04 |
| CCAUUGUGUUAAUUCAUGGTT against Kcnj15 | inactive: 0.112 |
| GCAACUAGCCUGUUCUAUCTT against AI325941 | inactive: 1.68 |

Look-ups from above:
GGCUUUUUCCUAAACUUGGTT against Nt5c | z-score: inactive: 0.935
CCAUCUUGGAGAUCCUGAUTT against Htatip | z-score: inactive: -2.23
